Literature values, collected in US20100056493A1, “MODIFIED RELEASE PHARMACEUTICAL COMPOSITION AND A PROCESS OF MAKING THE SAME” (priority 2007, published 2010).
For at least one compound, name, drawing or mass did not settle the structure.

Test system: de novo kidney allograft recipients
Settings: at 12 months; 720 mg mycophenolic acid as mycophenolate sodium twice daily or 1000 mg MMF twice daily; P=NS

COc1c(C)c2c(c(O)c1C/C=C(\C)CCC(=O)O)C(=O)OC2 [mycophenolate sodium]
BPAR rates: 22.5%
